Laboratory results as given in US11007136B2, “Cosmetic composition for wrinkle reduction containing gypenoside isolated from Gynostemma pentaphyllum” (CELLTRION INC., priority 2015, dated 2021).
Some entries share one result that the patent states for a list of compounds. For at least one compound, name, drawing or mass did not settle the structure.

Assay: Stability of the fraction in raw material solution (HPLC content of UL4, UL5)
Format: physicochemical
Details: raw material state, 12 weeks under sunlight and high temperature conditions
Experimental: A solution obtained by dissolving powder of the Gynostemma pentaphyllum gypenoside fraction at a concentration of 4% in 100 mL of a mixed solvent of propylene glycol, glycerin and distilled water at a ratio of 5:3:2 was used to identify stability of the Gynostemma pentaphyllum gypenoside fraction in a raw material state. While the solution was being stored under a condition of 4° C., 30° C. and 45° C. and sunlight for 12 weeks, changes with passage of time (% compared to an initial content) in the gypenosides UL4 and UL5, which were index ingredients for quantification out of the Gynostemma pentaphyllum gypenosides, were observed through an HPLC analysis and results thereof were indicated in Table 3.

SMILES	titer maintained
CC(C)=CC1C[C@](O)([C@H]2CC[C@]3(C)[C@@H]2CC[C@@H]2[C@@]4(C=O)CC[C@H](O[C@@H]5OC[C@H](O)[C@H](O[C@@H]6O[C@H](CO)[C@@H](O)[C@H](O)[C@H]6O)[C@H]5O[C@@H]5O[C@@H](C)[C@H](O)[C@@H](O)[C@H]5O)C(C)(C)[C@@H]4CC[C@]23C)[C@H](O)O1 (stereo partly drawn) [Gypenoside UL5, (23ξ)-3β,20β,21α-trihydroxy-19-oxo-21,23-epoxy-dammar-24-ene-3-O-[α-L-rhamnopyranosyl (1→2)][β-D-glucopyranosyl (1→3)]-α-L-arabinopyranoside]	at least 90%
CC(C)=CC1C[C@](O)([C@H]2CC[C@]3(C)[C@@H]2CC[C@@H]2[C@@]4(C=O)CC[C@H](O[C@@H]5OC[C@H](O)[C@H](O[C@@H]6OC[C@@H](O)[C@H](O)[C@H]6O)[C@H]5O[C@@H]5O[C@@H](C)[C@H](O)[C@@H](O)[C@H]5O)C(C)(C)[C@@H]4CC[C@]23C)[C@H](O)O1 (stereo partly drawn) [Gypenoside UL4, (23ξ)-3β,20β,21α-trihydroxy-19-oxo-21,23-epoxy-dammar-24-ene-3-O-[α-L-rhamnopyranosyl (1→2)][β-D-xylopyranosyl (1→3)]-α-L-arabinopyranoside]	at least 90%
